Laboratory results taken from PMC10289747.
No constants are given. Whether binding was seen depends on the method and setting. In cells and extracts the contact can be indirect. Here binding means that the protein was enriched with, or labelled near, the bait; the list need not be complete.

The chains behind the UniProt entries cited, without tags or fusion partners.
UniProt P28574: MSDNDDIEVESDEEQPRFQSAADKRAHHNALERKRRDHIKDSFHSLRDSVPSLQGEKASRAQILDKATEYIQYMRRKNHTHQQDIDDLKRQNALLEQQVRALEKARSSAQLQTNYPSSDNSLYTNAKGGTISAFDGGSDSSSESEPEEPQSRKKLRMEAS
UniProt Q02248: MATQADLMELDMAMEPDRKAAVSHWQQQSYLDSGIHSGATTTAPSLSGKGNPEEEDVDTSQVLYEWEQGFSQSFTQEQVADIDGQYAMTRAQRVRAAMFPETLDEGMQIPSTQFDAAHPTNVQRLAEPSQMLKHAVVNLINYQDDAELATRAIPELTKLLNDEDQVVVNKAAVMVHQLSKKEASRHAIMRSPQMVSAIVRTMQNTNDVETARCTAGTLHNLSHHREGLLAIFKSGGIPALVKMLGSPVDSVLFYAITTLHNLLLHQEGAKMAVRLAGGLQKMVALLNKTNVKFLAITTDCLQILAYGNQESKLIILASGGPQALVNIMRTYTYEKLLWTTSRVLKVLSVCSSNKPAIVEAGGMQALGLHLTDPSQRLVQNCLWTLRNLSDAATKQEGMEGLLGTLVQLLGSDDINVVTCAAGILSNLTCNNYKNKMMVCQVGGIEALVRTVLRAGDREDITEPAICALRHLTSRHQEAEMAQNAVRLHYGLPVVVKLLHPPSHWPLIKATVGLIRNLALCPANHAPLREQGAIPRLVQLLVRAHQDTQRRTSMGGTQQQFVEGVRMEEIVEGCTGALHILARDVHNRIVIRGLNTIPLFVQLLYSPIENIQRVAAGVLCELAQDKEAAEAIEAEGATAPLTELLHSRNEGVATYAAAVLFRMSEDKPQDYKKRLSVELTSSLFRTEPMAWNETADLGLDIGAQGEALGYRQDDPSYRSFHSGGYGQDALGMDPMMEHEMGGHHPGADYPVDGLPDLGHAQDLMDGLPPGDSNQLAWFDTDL
UniProt P70188: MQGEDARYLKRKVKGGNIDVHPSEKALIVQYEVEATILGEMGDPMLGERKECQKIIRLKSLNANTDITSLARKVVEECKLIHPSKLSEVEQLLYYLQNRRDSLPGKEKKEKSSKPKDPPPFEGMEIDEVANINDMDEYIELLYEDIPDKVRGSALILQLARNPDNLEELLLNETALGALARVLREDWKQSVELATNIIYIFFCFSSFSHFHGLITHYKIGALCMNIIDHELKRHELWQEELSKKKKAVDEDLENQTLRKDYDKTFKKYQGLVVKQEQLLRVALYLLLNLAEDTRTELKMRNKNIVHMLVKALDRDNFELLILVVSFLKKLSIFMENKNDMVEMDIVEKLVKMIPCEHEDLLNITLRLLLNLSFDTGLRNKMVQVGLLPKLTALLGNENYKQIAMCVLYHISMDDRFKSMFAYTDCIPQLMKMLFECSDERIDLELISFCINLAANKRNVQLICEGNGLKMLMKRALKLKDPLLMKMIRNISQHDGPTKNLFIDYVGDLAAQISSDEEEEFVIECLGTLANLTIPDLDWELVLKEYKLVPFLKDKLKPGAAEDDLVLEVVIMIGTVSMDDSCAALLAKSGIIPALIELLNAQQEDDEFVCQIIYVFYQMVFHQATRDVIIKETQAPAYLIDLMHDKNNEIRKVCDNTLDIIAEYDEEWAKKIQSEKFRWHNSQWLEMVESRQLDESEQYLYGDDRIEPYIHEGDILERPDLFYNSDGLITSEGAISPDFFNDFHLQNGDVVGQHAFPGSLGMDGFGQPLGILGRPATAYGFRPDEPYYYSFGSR
UniProt P63158: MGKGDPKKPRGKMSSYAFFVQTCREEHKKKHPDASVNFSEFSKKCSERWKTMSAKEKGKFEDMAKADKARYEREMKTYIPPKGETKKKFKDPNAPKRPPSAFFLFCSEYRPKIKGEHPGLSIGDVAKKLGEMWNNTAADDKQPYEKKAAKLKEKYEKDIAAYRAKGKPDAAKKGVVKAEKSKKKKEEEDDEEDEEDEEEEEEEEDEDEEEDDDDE

Target: MAX (MYC-associated factor X), mouse, endogenous (mouse (endogenous in mouse liver)) (UniProt P28574)
Assay: affinity purification with mass spectrometry; immunoprecipitation with an anti-MAX antibody from liver lysates of CCA and saline control mice; three specimens per group pooled

| binding | Molecule |
| --- | --- |
| binds | β-catenin (catenin beta-1), mouse, endogenous (from UniProt Q02248 1-781) |
| binds | kifap3 (KIF-associated protein 3), mouse, endogenous (from UniProt P70188 1-793) |
| binds | High-mobility group box-1 (HMGB1), mouse, endogenous (from UniProt P63158 1-215) |
| binds | IL-6, mouse, endogenous (protein, UniProt P08505 25-211) FPTSQVRRGDFTEDTTPNRPVYTTSQVGGLITHVLWEIVEMRKELCNGNSDCMNNDDALAENNLKLPEIQRNDGCYQTGYNQEICLLKISSGLLEYHSYLEYMKNNLKDNKKDKARVLQRDTETLIHIFNQEVKDLHKIVLPTPISNALLTDKLESQKEWLRTKTIQFILKSLEEFLKVTLRSTRQT |
| binds | WNT5B, mouse, endogenous (protein, UniProt P22726 18-359) QLLTDANSWWSLALNPVQRPEMFIIGAQPVCSQLPGLSPGQRKLCQLYQEHMSYIGEGAKTGIRECQHQFRQRRWNCSTVDNTSVFGRVMQIGSRETAFTYAVSAAGVVNAISRACREGELSTCGCSRAARPKDLPRDWLWGGCGDNVEYGYRFAKEFVDAREREKNFAKGSEEQGRALMNLQNNEAGRRAVYKMADVACKCHGVSGSCSLKTCWLQLAEFRKVGDRLKEKYDSAAAMRITRQGKLELANSRFNQPTPEDLVYVDPSPDYCLRNETTGSLGTQGRLCNKTSEGMDGCELMCCGRGYDRFKSVQVERCHCRFHWCCFVRCKKCTEVVDQYVCK |
| binds | TBC1d2b, mouse, endogenous (protein, UniProt Q3U0J8 1-965) MPGAGDGVEESCSGGEGAVPGTGSEAGAVAGREPSRLCGYLQKLSGKGPLRGYRSRWFVFDSRRCYLYYFKSPQDALPLGHLDIADACFSYQGRDEAAEPGADPPTHFQVHSAGAVTVLKAPNRELMTYWLQELQQKRWEYCNSLDMMKWDSRTSPTPGDFPKGLVARDTTDIISQHPNPSAEKARTVLAVEAAPGELVGDRAAHQPAPGHPNPINFYSLKQWGNELKNSMSSFRPGRGHSESRRTVFYTNEEWELLDPPPKDLEESLVPEERKKPMPEGSKGVASSGFPFEFGRNPYKGKRPLKDIIGSYKNRHSSSDPLLEGTATSSGSSGGPTKPVPEMQLQIQSQQEELEQLKKDLSSQKELIRLLQQTVRSSQYDKYFTNPQISQGVPGDTLELLHQKDEQILGLSGQLERFGLEKESLQQEVRTLKSKVGELNERLGMLMETIQAKDEVIIKLSACEGSVSSPTLGPSSPLAIPASKDQLELDRLKDSLQGYKSQNKFLNKEILELSALRRNAERRERDLMAKYSSLEAKLCQVESKYLILLQEMKTPVCSEEQGPARDVIAQLLEDALQVESQEQPEQAFVKPHLVSEFDIYGFRTVPDDDEEEKLVAKVRALDLKTLYLTDNQEVSTGVKWENYFASTMNREMACSPELKNLIRAGIPHEHRSKVWKWCVDRHTRKFKDSMEPDYFQTLLQKALEKQNPASKQIELDLLRTLPNNKHYSSPTSEGIQKLRSVLLAFSWRNPDIGYCQGLNRLVAVALLYLDQEDAFWCLVTIVEVFMPRDYYTKTLLGSQVDQRVFRDLLSEKLPRLHTHFEQYKVDYTLITFNWFLVVFVDSVVSDILFKIWDSFLYEGPKVIFRFALALFKYKEEEILKLQDSMSIFKYLRYFTRTILDARKLISISFGDLNPFPLRQIRNRRAYHLEKVRLELTELEAIREDFLRERDTSPDKGELVSDEEEDT |
| binds | Bcl9 (B-cell lymphoma 9), mouse, endogenous (protein, UniProt Q9D219 1-1425) MHPSNPKVRSSPSGNTQSSPKSKQEVMVRPPTVMSPSGNPQLDSKFSNQGKPGGSASQSQPSPCDSKSGGHTPKALPGPGGSMGLKNGAGNGAKGKGKRERSISADSFDQRDPGTPNDDSDIKECNSADHIKSQESQHTPHSMTPSTATAPRSSTPSHGQTPAPEPISAQKTPAKVVYVFSTEMANKAAEAVLKGQVETIVSFHIQNISNSKSERSTAPLNTQIPTLRNDPKPLPQQPPAPANQDQNSSQNARLQPTPPIQAPAPKPTAAPRPLDRESPGVENKLIPPVGSPGSSTPLPPDGTGPNSTPNNRAVTPVSQGSNSSSADPKAPPPPPVSGGEPPTLGENPDGLSQEQLEHRERSLQTLRDIQRMLFPDEKEFTAGQTGGPQQNTGVLDGPQKKPDGPIQAMMSQSQSLGKGPGPRTDVGAPFGPQGHRDVPFSPDEMVPPNMSSQSGPIGPDHLDHMTPEQIAWLKLQQEFYEEKRRKQEQVVVQQCSLQDMMVHQHGPRGVVRGPPPPYQMAPGEGWAPGAEPFPDGINISHSLPPRGMAPHPNMPGSQMRLPGFAGMINSEMEGPNVPNPASRPGLSGVSWPDDVPKIPDGRNFPPGQGVFSGPGRGERFPNPQGLSEEMFQQQLAEKQLALPPGMSMEGIRPGMEMNRMIPGSQRHMEPGSNPIFPRIPVEGPLSPSRGDFPKGMPPQIGPGRELEFGMVPGGMKGEVNLNVNMGSSSQMIPQKMREAGAGPEEMMKLRPGSSEMLPAQQKMVPLPFGEHPQQEYGVGPRPFLPMSQGPGSNSGLRNLREPIGPDQRTNSRLSHMPPLPLNPSSNPTSLSTAPPVQRGLGRKPLDISVAGSQVHSPGINPLKSPTMHQVQSPMLGSPSGNLKSPQTPSQLAGMLAGPAAAASIKSPPVLGSAAASPVHLKSPSLPAPSPGWTSSPKPPLQSPGIPPNHKAPLTMASPAMLGSVESGGPPPPTASQPASVNIPGSLPSSTPYPMPPEPTLSQNPLSIMMSRMSKFAMPSSTPLYHDAIKTVASSDDDSPPARSPNLPSMNSMPGMGINTQNPRISGPNPVVPMPTLSPMGMTQPLSHSNQMPSPNAMGPSIPPHGVPMGPGLMSHNPIMGHGSQEPPMVPQGRMGFPQGFPPVQSPPQQVPFPHNGPTGGQGNFPGGIGFPGEGPLGRPSNLPQSSADPALCKPGGPGAPDSFTVLGNSMPSVFTDPDLQEVIRPGATGIPEFDLSRIIPSEKPSQTLQYFPRGEVPGRKQPQGPGPGFSHMQGMMSDQAPRMGLALPGMGGPGPVGTPDIPLGTSPSMPGHNPMRPPAFLQQGMMGPHHRMMSPAQSTVPGPATLMTNPAAAVGMIPGKDRGPAGLYTHPGPVGSPGMMMSMQGMMGPQQNIMIPPQMRPRGMAADVGMGGFSQGPGNPGNMMF |
